Source: patent US5101059A, “Amino acid protecting groups” (Research Corporation Technologies, Inc., priority 1989, dated 1992)
For at least one compound, name, drawing or mass did not settle the structure.

Assay: Stability of FM-Fmoc-aniline towards catalytic hydrogenolysis
Format: physicochemical
Conditions: 5% Pd/C, 45 psi hydrogen, 24 hours
Method: E. Stability of FM-Fmoc-aniline Towards Catalytic Hydrogenolysis: To a mixture of 100 mg of FM-Fmoc-aniline and 63.9 mg of Fmoc-aniline in 30 mL of freshly distilled THF and 15 mL of 100% EtOH was added 30 mg of 5% palladium on charcoal. The mixture was shaken under hydrogen at a pressure of 45 psi in a Parr apparatus for 24 hours. […] Recrystallization of the latter from ethyl acetate gave 89.1 mg (89.1%) of the pure FM-Fmoc-anilineas white crystals, m.p. 243°-244° C. the ^1 H NMR and IR spectra of which matched that of an authentic sample.

## O=C(Nc1ccccc1)OCC1c2ccccc2-c2ccccc21 [Fmoc-aniline, reference compound]
  product of catalytic hydrogenolysis: 9-methylfluorene
